Test results reported in article PMC3843111.
No constants are given. Whether binding was seen depends on the method and setting. Binding seen in cells or lysates may run through a third protein. These calls come from enrichment with a bait or labelling near it, and not all partners need be listed.

Chains of the proteins cited; added tags and fusions are not shown.
UniProt Q8CHK4: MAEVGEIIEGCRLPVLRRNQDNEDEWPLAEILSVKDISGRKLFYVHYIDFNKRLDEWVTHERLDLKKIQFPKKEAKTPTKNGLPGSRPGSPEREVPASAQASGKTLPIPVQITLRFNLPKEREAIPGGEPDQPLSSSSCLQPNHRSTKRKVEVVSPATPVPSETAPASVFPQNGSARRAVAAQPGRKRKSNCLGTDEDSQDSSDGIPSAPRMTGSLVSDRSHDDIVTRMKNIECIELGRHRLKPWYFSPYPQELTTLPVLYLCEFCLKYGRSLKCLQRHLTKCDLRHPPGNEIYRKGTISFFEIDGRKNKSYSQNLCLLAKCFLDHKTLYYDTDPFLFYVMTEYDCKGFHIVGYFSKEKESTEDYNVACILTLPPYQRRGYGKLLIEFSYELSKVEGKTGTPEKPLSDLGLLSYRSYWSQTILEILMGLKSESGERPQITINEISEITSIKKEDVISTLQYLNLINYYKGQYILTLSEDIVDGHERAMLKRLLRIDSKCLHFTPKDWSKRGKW

Biological target: Tip60-H3F (Tip60 with a C-terminal 6-histidine-3-FLAG tag, from the endogenous gene) in ESCs (mouse (endogenous in ESCs)) (UniProt Q8CHK4)
Test: affinity purification with mass spectrometry; double affinity purification (FLAG-M2 Agarose, then TALON Agarose) of Tip60-H3F from ESC nuclear extracts, untagged cells as control; SDS-PAGE, in-gel digestion, LC-MS/MS

B1: Protein flightless-1 homolog (protein, UniProt Q9JJ28 1-1271)
chain: MEATGVLPFVRGVDLSGNDFKGGYFPENVKAMTSLRWLKLNRTGLCYLPEELAALQKLEHLSVSHNHLTTLHGELSSLPSLRAIVARANSLKNSGVPDDIFKLDDLSVLDLSHNQLTECPRELENAKNMLVLNLSHNGIDSIPNQLFINLTDLLYLDLSENRLESLPPQMRRLVHLQTLVLNGNPLLHAQLRQLPAMMALQTLHLRNTQRTQSNLPTSLEGLSNLSDVDLSCNDLTRVPECLYTLPSLRRLNLSSNQIAELSLCIDQWVHLETLNLSRNQLTSLPSAICKLTKLKKLYLNSNKLDFDGLPSGIGKLTSLEEFMAANNNLELIPESLCRCPKLKKLVLNKNRLVTLPEAIHFLTEIQVLDVRENPSLVMPPKPADRTAEWYNIDFSLQNQLRLAGASPATVAAAAAVGSGSKDPLARKMRLRRRKDSAQDVQAKQVLKGMSDVAQEKNKNQEESIDARAPGGKVRRWDQGLEKPRLDYSEFFTEDVGQLPGLTIWQIENFVPVLVEEAFHGKFYEADCYIVLKTFLDDSGSLNWEIYYWIGGEATLDKKACSAIHAVNLRNYLGAECRTVREEMGDESEEFLQVFDNDISYIEGGTASGFYTVEDTHYVTRMYRVYGKKNIKLEPVPLKGSSLDPRFVFLLDQGLDIYVWRGAQATLSNTTKARLFAEKINKNERKGKAEITLLVQGQEPPGFWDVLGGEPSEIKNHVPDDFWPPQPKLYKVGLGLGYLELPQINYKLSVEHKKRPKVELMPGMRLLQSLLDTRCVYILDCWSDVFIWLGRKSPRLVRAAALKLGQELCGMLHRPRHTVVSRSLEGTEAQVFKAKFKNWDDVLTVDYTRNAEAVLQGQGLSGKVKRDTEKTDQMKADLTALFLPRQPPMPLAEAEQLMEEWNEDLDGMEGFVLEGRKFTRLPEEEFGHFYTQDCYVFLCRYWVPVEYEEEEKTEDKEGKASAEAREGEEAAAEAEEKQPEEDFQCIVYFWQGREASNMGWLTFTFSLQKKFESLFPGKLEVVRMTQQQENPKFLSHFKRKFIIHRGKRKVTQGTLQPTLYQIRTNGSALCTRCIQINTDSSLLNSEFCFILKVPFESEDNQGIVYAWVGRASDPDEAKLAEDILNTMFDASYSKQVINEGEEPENFFWVGIGAQKPYDDDAEYMKHTRLFRCSNEKGYFAVTEKCSDFCQDDLADDDIMLLDNGQEVYMWVGTQTSQVEIKLSLKACQVYIQHTRSKEHERPRRLRLVRKGNEQRAFTRCFHAWSTFRQAPA
B1 was tested, and the binding was “binds”.

B2: Highly divergent homeobox (protein, UniProt Q14B70 1-692)
chain: MNLRSVFTVEQQRILQRYYENGMTNQSKNCFQLILQCAQETKLDFSVVRTWVGNKRRKMSSKSCESGAAGTVSGTSLAAPDITVRNVVNIARPSSQQSSWTSANNDVIVTGIYSPVSSSSKQGTTKHTNTQITEAHKIPIQKAANKNDTELQLHIPVQRQVAHCKNASVLLGEKTIILSRQTSVLNAGNSVYNHTKKSYGSSPVQASEMTVPQKPSVCQRPCKIEPVGIQRSYKPEHAGLASHNLCGQKPTIRDPCCRTQNLEIREVFSLAVSDYPQRILGGNSTQKPASAEGTCLSIAMETGDAEDEYAREEELASMGAQITSYSRFYESGNSLRAENQSTNLPGPGRNLPNSQMVNIRDLSDNVLYQTRDYHLTPRTSLHTASSTMYSNTNPSRSNFSPHFVSSNQLRLSQNQNNYQISGNLSVPWITGCSRKRALQDRTQFSDRDLATLKKYWDNGMTSLGSVCREKIEAVAIELNVDCEIVRTWIGNRRRKYRLMGIEVPPPRGGPADFSEQPESGSLSALTPGEEAGPEVGEDNDRNDEVSICLSEASSQEESNELIPNETRAHKDEEHQAVSADNVKIEIIDDEESDMISNSEVEQENSLLDYKNEEVRFIENELEIQKQKYFKLQSFVRNLILAMKADDKDQQQALLSDLPPELEEMDCSHASPDPDDTSLSVSSLSEKNASDSL
For B2, the binding was “binds”.
